The numbers were not newly measured in patent US5965621A, “Methods and compositions for reducing or maintaining body weight in a mammal” (Allergan, priority 1998, dated 1999), which cites them from elsewhere.

Structures are written as SMILES.

Broadly, the LD50 is the dose expected to kill half of the subjects tested.

The test system of data set [1] is rats. The settings on record: intravenous injection.
The test system of data set [2] is mice. The following applies: oral administration.
Data set [3] deals with animals and humans. The following applies: Donati et al. 1986, Arsenic et al.

Consider `CC(C)(CO)[C@@H](O)C(=O)NCCC(=O)NCCSSCCNC(=O)CCNC(=O)[C@H](O)C(C)(C)CO` [Pantethine], for which the values for the median lethal dose (LD50) in data set [1] and in data set [2] were 1690 mg/kg and > 10,000 mg/kg, respectively. The “toxicity (shown to be atoxic)” value in data set [3] is recorded as “atoxic”.
